Source: publication PMC10114437
No constants are given. Whether binding was seen depends on the method and setting. In cells and extracts the contact can be indirect. Some entries that bind do so weakly or less than the wild type.

Protein sequences, listed by entry. Tags and fused reporters are not part of them.
UniProt O95433: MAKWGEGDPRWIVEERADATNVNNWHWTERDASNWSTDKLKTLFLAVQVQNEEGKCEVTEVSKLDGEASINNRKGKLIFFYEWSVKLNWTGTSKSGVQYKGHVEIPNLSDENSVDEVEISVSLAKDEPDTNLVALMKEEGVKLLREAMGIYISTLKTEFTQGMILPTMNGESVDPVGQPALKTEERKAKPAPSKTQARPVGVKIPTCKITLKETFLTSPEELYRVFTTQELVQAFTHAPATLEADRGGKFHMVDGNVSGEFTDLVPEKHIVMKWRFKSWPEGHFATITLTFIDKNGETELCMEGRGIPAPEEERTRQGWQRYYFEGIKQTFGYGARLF
UniProt Q00534: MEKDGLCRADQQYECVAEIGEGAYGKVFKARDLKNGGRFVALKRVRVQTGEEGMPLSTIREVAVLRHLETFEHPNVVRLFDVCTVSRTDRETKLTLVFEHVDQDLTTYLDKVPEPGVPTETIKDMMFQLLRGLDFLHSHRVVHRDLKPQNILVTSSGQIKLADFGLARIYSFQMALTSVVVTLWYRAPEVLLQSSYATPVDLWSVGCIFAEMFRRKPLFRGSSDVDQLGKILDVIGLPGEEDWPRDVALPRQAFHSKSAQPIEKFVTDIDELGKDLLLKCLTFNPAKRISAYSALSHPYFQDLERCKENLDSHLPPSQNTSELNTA
UniProt Q13200: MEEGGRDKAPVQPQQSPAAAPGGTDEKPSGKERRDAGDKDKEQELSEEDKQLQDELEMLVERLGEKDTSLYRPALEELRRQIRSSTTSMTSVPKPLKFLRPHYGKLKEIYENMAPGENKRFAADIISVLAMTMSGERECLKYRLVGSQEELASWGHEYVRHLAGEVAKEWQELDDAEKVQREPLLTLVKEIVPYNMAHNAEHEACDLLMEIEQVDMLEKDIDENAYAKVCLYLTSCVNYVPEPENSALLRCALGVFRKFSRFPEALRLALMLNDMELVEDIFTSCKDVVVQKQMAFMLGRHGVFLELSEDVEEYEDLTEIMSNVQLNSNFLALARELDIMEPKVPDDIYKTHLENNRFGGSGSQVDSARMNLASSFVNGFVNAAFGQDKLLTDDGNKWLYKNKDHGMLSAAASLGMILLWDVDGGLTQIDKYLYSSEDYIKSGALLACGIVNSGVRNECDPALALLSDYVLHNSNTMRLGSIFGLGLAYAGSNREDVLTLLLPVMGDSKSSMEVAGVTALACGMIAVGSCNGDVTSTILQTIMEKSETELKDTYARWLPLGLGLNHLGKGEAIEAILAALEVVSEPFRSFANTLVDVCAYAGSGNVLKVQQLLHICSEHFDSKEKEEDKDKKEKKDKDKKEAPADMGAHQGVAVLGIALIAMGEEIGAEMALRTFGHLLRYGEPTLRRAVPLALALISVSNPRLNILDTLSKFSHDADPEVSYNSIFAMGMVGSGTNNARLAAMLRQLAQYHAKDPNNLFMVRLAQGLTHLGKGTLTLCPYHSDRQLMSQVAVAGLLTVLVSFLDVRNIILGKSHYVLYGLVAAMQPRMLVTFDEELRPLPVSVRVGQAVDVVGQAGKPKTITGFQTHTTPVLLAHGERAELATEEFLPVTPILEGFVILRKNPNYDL

Molecular target: AHSA1 (human) (UniProt O95433)
Test: co-IP; Fig. 4G; cells and precipitated protein not told in the legend

Row | binding | Substance
1 | binds | CDK6 (from UniProt Q00534 1-326)
2 | binds | PSMD2 (from UniProt Q13200 1-908)
3 | binds | the activated form of CDK6, phosphorylation of Y13 site at CDK6 (from UniProt Q00534 1-326)
